Publication PMC4340420
Results are given in words; binding and its absence hold for the method and conditions named. Some binding calls cover weakened binding; strength is not graded here.

Protein sequences, listed by entry. Tags and fused reporters are not part of them. Lines headed by an entry give the natural chain unless they say otherwise; changes in a name come on top. Chains listed by the source or under a name are the forms on record and can include a tag or linker.
hCDK12 D877N (kinase dead single mutant, His-tagged) (Q9NYV4, form named): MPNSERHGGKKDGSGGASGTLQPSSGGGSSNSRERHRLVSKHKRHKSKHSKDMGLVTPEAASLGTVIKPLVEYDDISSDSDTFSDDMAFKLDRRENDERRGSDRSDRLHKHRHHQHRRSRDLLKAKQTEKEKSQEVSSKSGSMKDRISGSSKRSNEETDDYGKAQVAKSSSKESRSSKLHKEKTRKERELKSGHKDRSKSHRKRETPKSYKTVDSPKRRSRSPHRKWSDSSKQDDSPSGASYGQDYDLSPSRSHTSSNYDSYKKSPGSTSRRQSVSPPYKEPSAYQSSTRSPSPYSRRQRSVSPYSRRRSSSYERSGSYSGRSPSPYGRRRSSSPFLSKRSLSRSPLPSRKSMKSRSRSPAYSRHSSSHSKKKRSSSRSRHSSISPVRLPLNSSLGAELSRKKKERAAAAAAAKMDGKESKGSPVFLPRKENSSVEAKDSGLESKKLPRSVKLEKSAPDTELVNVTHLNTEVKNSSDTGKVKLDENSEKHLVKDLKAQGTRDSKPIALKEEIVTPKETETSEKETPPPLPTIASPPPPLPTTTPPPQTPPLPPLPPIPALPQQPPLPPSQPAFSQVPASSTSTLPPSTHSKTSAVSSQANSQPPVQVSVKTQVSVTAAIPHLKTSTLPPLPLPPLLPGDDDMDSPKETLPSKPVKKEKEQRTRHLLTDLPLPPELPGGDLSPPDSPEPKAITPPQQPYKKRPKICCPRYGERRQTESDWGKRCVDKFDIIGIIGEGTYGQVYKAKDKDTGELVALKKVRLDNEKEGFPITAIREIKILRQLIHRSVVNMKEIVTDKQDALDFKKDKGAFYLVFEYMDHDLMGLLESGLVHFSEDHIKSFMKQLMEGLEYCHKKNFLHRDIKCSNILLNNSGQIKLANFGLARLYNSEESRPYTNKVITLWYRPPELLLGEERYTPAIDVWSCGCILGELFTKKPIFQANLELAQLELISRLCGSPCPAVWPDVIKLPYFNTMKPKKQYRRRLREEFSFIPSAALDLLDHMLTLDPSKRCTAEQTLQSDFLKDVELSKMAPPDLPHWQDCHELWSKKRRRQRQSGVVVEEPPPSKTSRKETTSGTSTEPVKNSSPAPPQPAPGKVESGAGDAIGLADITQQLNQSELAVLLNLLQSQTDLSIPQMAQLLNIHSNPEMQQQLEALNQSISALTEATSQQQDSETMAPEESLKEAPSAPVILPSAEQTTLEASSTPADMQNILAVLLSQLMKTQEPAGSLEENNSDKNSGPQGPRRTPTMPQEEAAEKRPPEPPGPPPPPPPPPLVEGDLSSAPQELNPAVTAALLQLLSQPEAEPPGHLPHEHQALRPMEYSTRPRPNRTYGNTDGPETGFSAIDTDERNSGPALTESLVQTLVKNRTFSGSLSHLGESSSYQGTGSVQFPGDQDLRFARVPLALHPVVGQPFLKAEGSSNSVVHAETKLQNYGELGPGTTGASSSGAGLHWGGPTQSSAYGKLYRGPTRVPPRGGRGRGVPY
hCDK12 F813G (analog-sensitive mutant, His-tagged) (Q9NYV4, form named): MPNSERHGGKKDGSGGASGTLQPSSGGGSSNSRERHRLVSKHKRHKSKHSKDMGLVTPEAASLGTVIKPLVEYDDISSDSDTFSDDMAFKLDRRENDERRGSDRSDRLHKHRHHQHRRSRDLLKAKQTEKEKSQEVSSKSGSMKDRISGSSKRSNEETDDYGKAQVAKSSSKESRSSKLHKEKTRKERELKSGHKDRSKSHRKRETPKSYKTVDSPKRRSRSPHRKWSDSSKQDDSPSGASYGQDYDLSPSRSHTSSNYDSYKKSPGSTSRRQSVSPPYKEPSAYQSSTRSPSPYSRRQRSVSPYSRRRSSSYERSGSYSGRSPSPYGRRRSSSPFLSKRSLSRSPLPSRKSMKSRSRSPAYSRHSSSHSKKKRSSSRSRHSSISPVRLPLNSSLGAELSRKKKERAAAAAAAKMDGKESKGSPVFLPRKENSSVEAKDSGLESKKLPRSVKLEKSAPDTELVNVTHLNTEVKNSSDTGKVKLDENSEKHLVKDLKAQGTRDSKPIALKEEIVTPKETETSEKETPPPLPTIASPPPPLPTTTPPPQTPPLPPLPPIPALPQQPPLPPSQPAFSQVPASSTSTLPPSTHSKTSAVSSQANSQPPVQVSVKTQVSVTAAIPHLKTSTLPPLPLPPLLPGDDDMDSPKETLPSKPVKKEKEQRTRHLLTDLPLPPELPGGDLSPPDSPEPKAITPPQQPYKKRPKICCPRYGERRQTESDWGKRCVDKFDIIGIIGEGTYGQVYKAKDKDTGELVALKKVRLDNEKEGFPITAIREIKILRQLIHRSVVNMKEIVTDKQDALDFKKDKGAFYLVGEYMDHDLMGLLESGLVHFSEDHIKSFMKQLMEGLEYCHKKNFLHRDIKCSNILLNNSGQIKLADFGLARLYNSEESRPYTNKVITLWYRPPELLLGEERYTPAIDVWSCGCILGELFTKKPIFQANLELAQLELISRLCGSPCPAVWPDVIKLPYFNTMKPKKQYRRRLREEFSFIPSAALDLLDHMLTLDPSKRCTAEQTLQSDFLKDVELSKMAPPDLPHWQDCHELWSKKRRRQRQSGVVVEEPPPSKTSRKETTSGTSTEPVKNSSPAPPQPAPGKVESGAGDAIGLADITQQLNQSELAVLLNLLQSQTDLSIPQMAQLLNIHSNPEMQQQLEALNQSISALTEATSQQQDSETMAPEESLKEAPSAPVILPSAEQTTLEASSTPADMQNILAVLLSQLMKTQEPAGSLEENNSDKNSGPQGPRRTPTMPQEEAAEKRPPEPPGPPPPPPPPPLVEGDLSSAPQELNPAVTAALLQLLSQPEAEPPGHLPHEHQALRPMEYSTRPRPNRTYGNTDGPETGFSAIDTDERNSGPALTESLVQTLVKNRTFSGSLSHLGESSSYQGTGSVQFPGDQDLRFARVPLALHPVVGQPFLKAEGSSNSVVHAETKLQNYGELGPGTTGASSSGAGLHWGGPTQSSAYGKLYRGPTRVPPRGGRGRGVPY
hCDK12 D877N/K756A (kinase dead double mutant, His-tagged) (Q9NYV4, form named): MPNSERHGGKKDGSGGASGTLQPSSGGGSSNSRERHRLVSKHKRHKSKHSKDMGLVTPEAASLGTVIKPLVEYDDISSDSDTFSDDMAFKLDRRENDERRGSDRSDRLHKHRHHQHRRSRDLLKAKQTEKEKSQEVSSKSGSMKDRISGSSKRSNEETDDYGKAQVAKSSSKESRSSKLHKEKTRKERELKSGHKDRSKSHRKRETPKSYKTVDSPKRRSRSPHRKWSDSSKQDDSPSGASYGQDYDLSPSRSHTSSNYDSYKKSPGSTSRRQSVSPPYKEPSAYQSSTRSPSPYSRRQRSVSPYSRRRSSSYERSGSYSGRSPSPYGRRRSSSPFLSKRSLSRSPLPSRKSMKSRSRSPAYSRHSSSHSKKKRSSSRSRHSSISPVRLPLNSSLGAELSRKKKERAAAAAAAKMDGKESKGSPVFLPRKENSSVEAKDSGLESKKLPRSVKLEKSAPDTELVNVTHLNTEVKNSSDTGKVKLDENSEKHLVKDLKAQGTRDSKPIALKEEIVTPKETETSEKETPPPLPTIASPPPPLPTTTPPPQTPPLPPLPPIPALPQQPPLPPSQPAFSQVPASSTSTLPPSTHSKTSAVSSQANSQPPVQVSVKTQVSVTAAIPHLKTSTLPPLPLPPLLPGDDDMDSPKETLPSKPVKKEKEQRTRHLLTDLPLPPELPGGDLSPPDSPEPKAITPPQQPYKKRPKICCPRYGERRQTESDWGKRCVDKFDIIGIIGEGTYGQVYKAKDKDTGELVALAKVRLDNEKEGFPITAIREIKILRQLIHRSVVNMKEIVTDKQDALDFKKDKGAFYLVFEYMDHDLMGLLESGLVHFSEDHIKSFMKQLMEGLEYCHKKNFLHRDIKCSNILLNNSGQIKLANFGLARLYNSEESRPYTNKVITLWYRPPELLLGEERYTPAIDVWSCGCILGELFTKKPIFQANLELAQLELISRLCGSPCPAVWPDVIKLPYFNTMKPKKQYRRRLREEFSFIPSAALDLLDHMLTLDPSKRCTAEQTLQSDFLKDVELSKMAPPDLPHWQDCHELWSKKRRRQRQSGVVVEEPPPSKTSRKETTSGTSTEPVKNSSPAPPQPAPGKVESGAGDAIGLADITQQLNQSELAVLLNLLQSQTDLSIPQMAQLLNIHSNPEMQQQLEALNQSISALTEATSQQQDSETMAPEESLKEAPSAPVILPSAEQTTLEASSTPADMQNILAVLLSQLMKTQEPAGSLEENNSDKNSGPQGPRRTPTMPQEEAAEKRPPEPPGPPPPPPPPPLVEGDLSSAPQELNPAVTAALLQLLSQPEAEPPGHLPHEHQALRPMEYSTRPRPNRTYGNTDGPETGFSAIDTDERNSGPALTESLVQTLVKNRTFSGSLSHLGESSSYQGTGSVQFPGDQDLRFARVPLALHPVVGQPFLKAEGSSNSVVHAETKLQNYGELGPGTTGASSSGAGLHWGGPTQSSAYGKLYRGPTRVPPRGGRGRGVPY
UniProt O75909: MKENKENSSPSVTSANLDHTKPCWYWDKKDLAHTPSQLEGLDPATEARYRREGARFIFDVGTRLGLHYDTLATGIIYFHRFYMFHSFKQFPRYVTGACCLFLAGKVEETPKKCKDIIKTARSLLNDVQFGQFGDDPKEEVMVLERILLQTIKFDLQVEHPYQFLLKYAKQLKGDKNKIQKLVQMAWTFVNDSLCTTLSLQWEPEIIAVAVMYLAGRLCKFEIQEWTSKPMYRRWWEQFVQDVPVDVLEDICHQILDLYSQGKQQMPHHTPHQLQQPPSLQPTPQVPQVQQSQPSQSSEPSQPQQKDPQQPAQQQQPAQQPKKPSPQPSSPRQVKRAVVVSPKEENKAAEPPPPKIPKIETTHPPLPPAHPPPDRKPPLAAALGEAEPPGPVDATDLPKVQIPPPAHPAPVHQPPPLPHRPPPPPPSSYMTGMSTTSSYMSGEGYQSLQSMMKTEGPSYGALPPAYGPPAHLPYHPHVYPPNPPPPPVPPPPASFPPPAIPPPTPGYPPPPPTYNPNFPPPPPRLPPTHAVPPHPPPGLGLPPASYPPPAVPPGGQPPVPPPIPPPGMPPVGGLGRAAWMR

Key:
Test in all cases: SEC; second step of the two-step purification: pooled Ni-Sepharose eluate of the co-expressed complex on Superdex 200 10/30 HR, 25 mM HEPES pH 7.6, 8% glycerol, 300 mM NaCl; fractions on Coomassie gel; purified complexes used in kinase assays; both purified
[1] = target: hCDK12 D877N (kinase dead single mutant, His-tagged) (human) (UniProt Q9NYV4)
[2] = target: hCDK12 F813G (analog-sensitive mutant, His-tagged) (human) (UniProt Q9NYV4)
[3] = target: hCDK12 D877N/K756A (kinase dead double mutant, His-tagged) (human) (UniProt Q9NYV4)

Measured: binding

full-length human CyclinK (580 AA) (from UniProt O75909 1-580)
binds: all assays above
